Data taken from patent US12686723.
Where a chain is given by its changes, count along the chain named. Results are given in words; binding and its absence hold for the method and conditions named. Some binding calls cover weakened binding; strength is not graded here.

Sequences of proteins named here, by UniProt entry; tags and fusion partners are left off.
UniProt Q02223: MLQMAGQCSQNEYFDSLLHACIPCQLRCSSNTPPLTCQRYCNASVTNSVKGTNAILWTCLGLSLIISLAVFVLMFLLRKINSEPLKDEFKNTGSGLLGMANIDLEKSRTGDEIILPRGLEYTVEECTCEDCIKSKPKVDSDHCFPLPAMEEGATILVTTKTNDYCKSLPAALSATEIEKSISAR

B1: anti-human BCMA monoclonal antibody 18D10 (antibody, human IgG1, kappa, V domains shown)
VH: EVRLVESGGGLVQPGRSLRLSCAASGFTSNDYAMHWVRQAPGRGLEWVSGISWNSDSIGYADSVKGRFTISRDNAKNSLYLQMNSLRTEDTALYYCATVVSAYFDYWGQGTLVTVSS
VL: DIQMTQSPSSLSASVGDRVTITCRTSQSISTYLNWYQQKPGKAPKLLIYAASSLKSGVPSRFSGSGSGTDFTLTISSLQPEDFATYFCQGSYIIPLTFGGGTRVEIKR
B2: anti-human BCMA monoclonal antibody 20A9 (antibody, human IgG1, kappa, V domains shown)
VH: QVQLVQSGAEVKKPGASAKVSCKASGYTFTSYAMQWVRQAPGQRLEWMGWINAGNGNIKYSQKFQGRVTITRDTSASTAYMELSSLRSEDTAVYYCARGGRLELDVYYYFYYMDVWGKGTTVTVSS
VL: DIVMSQSPDSLAVSLGERTTINCKSSQSVLHSSQNKNYLAWYQQKPGQPPNPLIHWASTRESGVPDRFSGSGSGTDFTLTISSLQAEDVAVYYCQQYYRVPFTFGPGTKVDIKR
B3: anti-human BCMA monoclonal antibody 27A7 (antibody, human IgG1, kappa, V domains shown)
VH: EVQLVESGGGLVQPGRSLRLSCAASGFTFDDHAMHWVRQAPGKGLEWVSGISWNSVHIGYADSVKGRFTISRDNAKNSLYLQMNSLRAEDTALYYCAKDIFSPTGDDYWGQGTLVTVSS
VL: DIQMTQSPSSLSASVGDRVTITCRASQDIRNNLGWFQQKPGKTPKRLIYAASSLQSGVPSRFSGSGSGTEFTLTISSLQPEDFATYYCLHHNSYPPTFGQGTKVEIKR
B4: anti-human BCMA monoclonal antibody 15A7 (antibody, human IgG1, kappa, V domains shown)
VH: EVQLVESGGGLVQPGGSLRLSCEASGFTFDDCAMHWVRQTPGKGLEWVSGISWNSDTMGYADSVKGRFIISRDNAKNSLYLQMNSLRVEDTALYHCTRVRAAVFDYWGQGVLVTVSS
VL: DIHMTQSPSSLSASVGDRVTITCRASQSISSYLNWFQQKPGKAPTVLIYAASSLQSGVSSRFSGRGSGADFTLTISSLQPEDFASYFCQQSFSPLYIFGQGTKVEIKR
B5: anti-human BCMA monoclonal antibody 15H6 (antibody, human IgG1, kappa, V domains shown)
VH: B2 VH with I58T, V106I
VL: B2 VL
B6: anti-human BCMA monoclonal antibody 23C4 (antibody, human IgG1, kappa, V domains shown)
VH: B3 VH with D30A, V56D, A88P, D107G
VL: B3 VL with T74I
B7: anti-human BCMA monoclonal antibody 20A2 (antibody, human IgG1, kappa, V domains shown)
VH: QIQLVQSGAEVKKPGASVKVSCKASGYTFTAYYLHWVRQSPGHGLEWMGRIYPNSGDTNYAQKFQGRVTMTRDTSINTAYMELSRLRSDDTALYYCARGFNWNYEGGFDIWGQGTMVTVSS
VL: DVVMTQSPLSLSVTLGQPASISCRSGQSLVYSDGNTYLNWFQQRPGQSPRRLIYKLSSRDSGVPDRFSGSGSGTDFTLKISRMEAEDVGVYYCMQRTHWPPTFGQGTKVEIKR

These binders were tested against BCMA expressed on the surface of U266 cells (human) (UniProt Q02223) (assay: flow cytometry on U266 cells, hybridoma supernatant, goat anti-mouse IgG-PE).

binding, binds:
B1
B2
B3
B4
B5
B6
B7
